Measurements as given in the supplement of paper PMC10338343.
± gives the standard deviation. The entries are a selection whose mix differs from that of the whole data set. The uncertainty is large for many entries.

These sequences were tested on MIWI (PIWIL1) piRISC loaded with piRNA #2 (30 nt) (assay: pre-steady-state target cleavage rate (min^-1); MIWI and MILI are mouse PIWI proteins and EfPiwi is from a freshwater sponge; tags in brackets are library labels; higher = faster piRNA-guided slicing of the target). Conditions: guide: piRNA #2 5'p-UUAGGUAACCCAGUAGAUCCAGAGGAAUUC; auxiliary factor: 500 nM mouse GTSF1.
Outline: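 Three pooled Cleave-'n-Seq trials supplied the data, with k3 capped at 0.0001 min^-1. In each, […] transcribed, DNA-blocked target RNA library and 1 nM active affinity-purified piRISC with one synthetic guide reacted in HEPES–potassium acetate buffer at 33 °C for 0–8 or 0–960 min, with or without 500 nM GTSF1 partner protein. Uncleaved targets were sequenced and normalised to depth and to weakly complementary targets. A burst-and-steady-state fit provided the pre-steady-state cleavage rate.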
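Further: 1 nM active piRISC with 0.1 nM target library at 33 °C single turnover.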

Sequence	pre-steady-state target cleavage rate
CUUAAGGAGACGAUCUACUGGGUUUCCUAA	0.00205 ± 0.0044
CUUAAGGAGACCUUCGACUGGGUUACCUAA	0.000542 ± 0.0084
CUUAAGGAGACCUUCUACUGGGUCACCUAA	0.00106 ± 0.011
CUUAAGGAGAGGAUCUAAUGGGUUACCUAA	0.000703 ± 0.018
CUUAAGGAGACCUUCUACUGGGUUCACCUAA	0.00182 ± 0.0074
CUUAAGGAGACCAUCUUCUGGGUUACGUAA	0.00133 ± 0.0071
GAAUUCCUCUCGAUCUACUGGGUUUCCUAA	0.524 ± 0.06
CUUAAGGAGAGGAUCUACUGGGUACCUAA	0.000298 ± 0.015
CUUAAGGAGACCUAGUUCUGGGUUACCAAA	0.000879 ± 0.0099
CUUAAGGAGACCUUACUACUGGGUUACCUAA	0.00167 ± 0.0071
CUUAAGGAGACCUUCUACAGGGUUACCAAA	0.0016 ± 0.0047
CUUAAGGAGACCUAGUACUGGGUUUCGUAA	0.00035 ± 0.018
CUUAUCCUCUGGAUCUACUUGGGUUACCUAA	0.00126 ± 0.0071
CUUAAGGACUGGUCUACUGGGUUACCUAA	0.000539 ± 0.027
CUUAAGGAGACGAUCUACUGGGUAUCCUAA	0.00124 ± 0.0047
CUUAAGGAGACGAUCUAUGGGUUACCUAA	0.00153 ± 0.0044
CUUAACCUCUCGAUGUACUGGGUUACCUAA	0.421 ± 0.029
CUUAAGGACUGGAUCUACUGCGUUAGCUAA	0.0147 ± 0.02
CUUAAGGAGACCUAGAUCUGGGUUACUAA	0.00023 ± 0.016
CUUAAGGAGACCAUCUACUGGGUUACCAA	0.00251 ± 0.0026
CUUAAGGAGACCUAGAUCUUGGUUACCUAA	0.000361 ± 0.013
CUUAAGGAGUGCAUCUACUGGGUUACCAAA	0.00134 ± 0.0055
CUUAAGGAGACCUAGAACUGGGUUUACCUAA	0.000205 ± 0.025
CUUAAGGAGACCUAGUACUGGGUUACCUCAA	0.000733 ± 0.0095

Sequence	pre-steady-state target cleavage rate
CUUAAGCUCUGGAUCUACUGGGUUCCUAA	0.00127 ± 0.0073
CUUAAGGAGACCUAGAUCUGGGUUACCUCAA	0.000615 ± 0.015
CUUAAGGAGACCUAGAUGACGGUUCCCUAA	0.000138 ± 0.033
CUUAAGGAGACCUAGAUGAGGUUACCUAA	0.000893 ± 0.0086
CUUAAGGUCUGGAUCUACUGGGUUUGGUAA	0.00539 ± 0.0055
CUUAAGGAGACCAUCUACUGGCAUACCUAA	0.000838 ± 0.012
CUUAAGGACUGGAUGUAGUGGGUUACCUAA	0.00176 ± 0.011
CUUUUCCUCUGGAUCUAGCUGGGUUACCUAA	0.00129 ± 0.0062
CUUAAGGAGACCAUCUACAGGGUUACCAAA	0.00159 ± 0.0048
CUUAACCUCUGGAUCAUGUGGGUUACCUAA	0.000788 ± 0.0097
CUUUUCCUCUGGAUCUACUGGUGUUACCUAA	0.00402 ± 0.0035
CUUAAGGAGACCAUCCUACUGGGUUACCUAA	0.00206 ± 0.0038
CUUAAGGAGUGUAUCUACUGGGUUACCUAA	0.00745 ± 0.0081
CUUAAGGAGACCUUCUAUCUGGGUUACCUAA	0.00126 ± 0.0073
CUUAAGGAGAGGAUCUAGCUGGGUUACCUAA	0.000138 ± 0.04
CUUAAGGAGAGGAUCUUCUGGGAUACCUAA	0.000114 ± 0.051
CUUAAGGAGACCUUCUACUGGCUUACCUAA	0.00171 ± 0.0037
GUAUACCUCUGGAUCUACUGGGUUACCUAA	0.642 ± 0.23
CUUAAGGAGACCUAGAUGUCGGGUUACCUAA	0.000577 ± 0.014
CUUAAGGAGAGUAUCUACUGGGUUACCUAA	0.00318 ± 0.0044
CUUAACCUCUGGAUCUCUGGGUUACCUAA	0.00276 ± 0.0039
CUUAAGGAGACCUAGAUGACCGUUACCUAU [g2:g9:cont:t1U]	0.000142 ± 0.018
CUUAAGGAGACCUAGUACUGGGUUACCUAU [g2:g15:cont:t1U]	0.00141 ± 0.0036
CUUAAGGAGACCUAGAUGUGGGUUACCUAG [g2:g12:cont:t1G]	0.000336 ± 0.02

Sequence	pre-steady-state target cleavage rate
CUUAAGGACUGGAUCUACUGGGUUACCAUAA	0.051 ± 0.039
CUUAAGGAGACCUUCGUACUGGGUUACCUAA	0.000479 ± 0.015
CUUAAGGAGACCUAGUACUGGGUUACCUAA	0.00126 ± 0.0044
CUUAAGGAGACGAUCUACUGGGUUACUUAA	0.000853 ± 0.01
CUUAAGGAGACCUUCAACUGGCUUACCUAA	0.000649 ± 0.011
CUUAAGGAGAGGAUCUACUGGGUUUCGUAA	0.000416 ± 0.019
CUUAAGGAGAGGAUCUACUGGGUUACCUCA	0.012 ± 0.0055
CUUAAGGAGACGAUCUACAGGGUUACGUAA	0.0022 ± 0.0033
CUUAAGGAGACGAUCUACUGGAUUACCUAA	0.00172 ± 0.0052
CUUAAGGAGACGAUCUACUGGGUUACGCUAA	0.00121 ± 0.011
CUUAAGGAGACCAUCUACUGGGUUACGAAA	0.000304 ± 0.016
CUUAAGGAGACGAUCCACUGGGUUACCUAA	0.00264 ± 0.0042
CUUAUGCUCUGGAUCUACUGGGUUACCUAA	0.124 ± 0.02
CAAUUCCUCUGGAUCUACAGGGUUUCCUAA	0.178 ± 0.026
CUUAAGGAGACCAUCAACUGGCUUACCUAA	0.000694 ± 0.01
CUUAAGGAGACCUUCUAGUGGGUUACGUAA	0.000255 ± 0.021
CUUAAGGUCUGGAUGAUCUGGGUUACCUAA	0.000419 ± 0.018
CUUAAGGAGACCUAGAUGAGCGUUACGUAA	0.00267 ± 0.0029
CUUAAGGAGAGGAUCCUACUGGGUUACCUAA	0.00204 ± 0.0043
CUUAAGGAGACCUUCUACUGGGUUACGUAA	0.00451 ± 0.0027
CUUAAGGACUCGAUCUACUCGGUUACCUAA	0.00199 ± 0.013
CUUAAGGAGACGAUCUACUCGGGUUACCUAA	0.00066 ± 0.0093
CUUAAGGAGACCUACUACUGGGCUUACCUAA	0.00043 ± 0.022

Exported bar-delimited: part of the list above
Sequence | pre-steady-state target cleavage rate
CUUAAGGAGACCUAGAUGUCGGGUUACCUAA | 0.000577 ± 0.014
CUUAAGGAGAGUAUCUACUGGGUUACCUAA | 0.00318 ± 0.0044
CUUAACCUCUGGAUCUCUGGGUUACCUAA | 0.00276 ± 0.0039
CUUAAGGAGACCUAGAUGACCGUUACCUAU [g2:g9:cont:t1U] | 0.000142 ± 0.018
CUUAAGGAGACCUAGUACUGGGUUACCUAU [g2:g15:cont:t1U] | 0.00141 ± 0.0036
CUUAAGGAGACCUAGAUGUGGGUUACCUAG [g2:g12:cont:t1G] | 0.000336 ± 0.02
CUUAAGGACUGGAUCUACUGGGUUACCAUAA | 0.051 ± 0.039
CUUAAGGAGACCUUCGUACUGGGUUACCUAA | 0.000479 ± 0.015
CUUAAGGAGACCUAGUACUGGGUUACCUAA | 0.00126 ± 0.0044
CUUAAGGAGACGAUCUACUGGGUUACUUAA | 0.000853 ± 0.01
CUUAAGGAGACCUUCAACUGGCUUACCUAA | 0.000649 ± 0.011
CUUAAGGAGAGGAUCUACUGGGUUUCGUAA | 0.000416 ± 0.019
CUUAAGGAGAGGAUCUACUGGGUUACCUCA | 0.012 ± 0.0055
CUUAAGGAGACGAUCUACAGGGUUACGUAA | 0.0022 ± 0.0033
CUUAAGGAGACGAUCUACUGGAUUACCUAA | 0.00172 ± 0.0052
